From US20060239968A1 (University of Texas, published 2006)
No constants are given. Whether binding was seen depends on the method and setting. A result given as binding can be weak or reduced; the word gives no strength.

Target: T1, prohibitin (B cell receptor associated protein) (mouse)
T1 sequence (P67778 2-272, looked up): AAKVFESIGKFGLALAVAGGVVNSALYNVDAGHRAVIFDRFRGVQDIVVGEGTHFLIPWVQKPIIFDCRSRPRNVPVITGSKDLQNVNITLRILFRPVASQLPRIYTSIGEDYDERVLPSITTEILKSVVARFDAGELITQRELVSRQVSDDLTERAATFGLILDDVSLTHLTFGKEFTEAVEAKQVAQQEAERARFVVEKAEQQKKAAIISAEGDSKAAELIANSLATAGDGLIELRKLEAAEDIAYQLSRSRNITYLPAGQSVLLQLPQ
Assay: immunoprecipitation from mouse adipose tissue extract, SDS-PAGE

binding: binds
Binder: CARACKLAKLAKKLAKLAK (cyclized using the terminal cysteines) [CARAC (SEQ ID NO:71) conjugated to (KLAKLAK)2 (SEQ ID NO:1)]
